Laboratory results: PubChem BioAssay AID1159578 (Peter MacCallum Cancer Centre, 2015)
Here is an unselected part of about 18,000 reagents. About 1,030 of all reagents (5.7%) were called active. 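Inactive calls also include pools with fewer than 3300 nuclei, whose migration was not assessed.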 Raw values vary from plate to plate and are shown uncorrected. Further read-outs or replicates are left out here.

Test: 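siRNA pools altering how lymphatic endothelial cells close a scratch wound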 (primary screen)
System: human lymphatic endothelial cells
Reagents: siRNA pool against human genes, 40 nM
Timing: 48 h after transfection
Measurement: 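High-content imaging of dye-stained cells in a scratch assay measures filled wound area and nuclei per well; duplicate means given as ratio to mock and robust z-score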
Scale: migration robust z-score: higher = faster migration into the scratch; nuclei per well: higher = more cells in the well
Hit rule: 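Migration changed when robust z exceeds 2 or falls below -2 and mean nuclei number is at least 3300; otherwise not called changed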
Calls: active = migration changed; inactive = no migration change, or too few cells

ZNF589 (zinc finger protein 589) — migration robust z-score: -0.12; migration class with cell-count check: migration z between -2 and 2; enough cells; nuclei per well, duplicate mean: 5564; call: inactive
MLH3 (mutL homolog 3) — migration robust z-score: 1.82; migration class with cell-count check: migration z between -2 and 2; enough cells; nuclei per well, duplicate mean: 5025; call: inactive
S100Z (S100 calcium binding protein Z) — migration robust z-score: 1.36; migration class with cell-count check: migration z between -2 and 2; enough cells; nuclei per well, duplicate mean: 5384; call: inactive
SNTA1 (syntrophin alpha 1) — migration robust z-score: 1.01; migration class with cell-count check: migration z between -2 and 2; enough cells; nuclei per well, duplicate mean: 4816; call: inactive
ZNF584 (zinc finger protein 584) — migration robust z-score: 0.31; migration class with cell-count check: migration z between -2 and 2; enough cells; nuclei per well, duplicate mean: 6554; call: inactive
ECE1 (endothelin converting enzyme 1) — migration robust z-score: 1.61; migration class with cell-count check: migration z between -2 and 2; enough cells; nuclei per well, duplicate mean: 4312; call: inactive
FANCD2 (FA complementation group D2) — migration robust z-score: -0.08; migration class with cell-count check: migration z between -2 and 2; enough cells; nuclei per well, duplicate mean: 5634; call: inactive
LOC652591 (retired record) — migration robust z-score: 1.74; migration class with cell-count check: migration z between -2 and 2; enough cells; nuclei per well, duplicate mean: 4970; call: inactive

Ordered by “nuclei per well, duplicate mean” (ascending): 2 of the entries above.
ECE1 (endothelin converting enzyme 1) — migration robust z-score: 1.61; migration class with cell-count check: migration z between -2 and 2; enough cells; nuclei per well, duplicate mean: 4312; call: inactive
FANCD2 (FA complementation group D2) — migration robust z-score: -0.08; migration class with cell-count check: migration z between -2 and 2; enough cells; nuclei per well, duplicate mean: 5634; call: inactive

The list goes on:
FERMT2 (FERM domain containing kindlin 2) — migration robust z-score: -0.46; migration class with cell-count check: migration z between -2 and 2; enough cells; nuclei per well, duplicate mean: 5358; call: inactive
BCKDHA (branched chain keto acid dehydrogenase E1 subunit alpha) — migration robust z-score: -1.79; migration class with cell-count check: migration z between -2 and 2; enough cells; nuclei per well, duplicate mean: 4785; call: inactive
KRT19 (keratin 19) — migration robust z-score: 1.17; migration class with cell-count check: migration z between -2 and 2; enough cells; nuclei per well, duplicate mean: 6054; call: inactive
IL3 (interleukin 3) — migration robust z-score: -1.63; migration class with cell-count check: migration z between -2 and 2; enough cells; nuclei per well, duplicate mean: 4424; call: inactive
